# The other results are listed elsewhere or left out. Shown are side measurements of this screen, not its main read-out; they come without a call. The list favours compounds with an active or inconclusive main result. Words in brackets tell the shape of the fitted curve; partial curves, single points and poor fits give uncertain potencies.
# Experiment: qHTS Assay for Lipid Storage Modulators in Drosophila S3 Cells;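 as to cell number change: cells counted by Cell Tracker Red CMTPX staining in the red channel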
# Details: BODIPY lipid droplet fluorescence, 18-24 h; for cell number change: measured here: cell count max response, cells fed with added oleic acid
# Summary of the method: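 Drosophila S3 cells loaded with oleic acid (400 uM, as added) and compounds at several concentrations; lipid droplets imaged by 488-nm laser-scanning cytometry, 500–530 nm intensity and object ratio to cell channel. Percent activity normalized to 20 uM Triacsin C.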
# [1] = measured here: lipid fluorescence (Fed channel) AC50, cells fed with added oleic acid
# [2] = measured here: cell number channel AC50, cells fed with added oleic acid
SMILES,cell number change [%],AC50 [1],AC50 [2]
COc1ccc(CCNC(=O)C2CCCN2C(=O)Nc2ccc(F)cc2)cc1OC (centres undefined),14.8,"6.51 µM [rising, single point]",
CCc1ccc(NSc2ccccc2[N+](=O)[O-])cc1,-142,"29.1 µM [falling, partial curve]","10.3 µM [falling, partial curve]"
COc1ccc(Cl)cc1NC(=O)CN(C)C(=O)CCCNC(=O)c1ccc(Cl)cc1,41.1,,"10.3 µM [rising, single point]"
Cc1cccn2c(=O)c3cc(C(=O)NC(C)C)c(=N)n(Cc4ccncc4)c3nc12,,,"0.58 µM [rising, single point]"
COc1ccc(C(=O)NC(=S)Nc2ccc(S(=O)(=O)Nc3cc(OC)ncn3)cc2)cc1,9.4,"0.731 µM [rising, partial curve, poor fit]",
Brc1ccccc1C1=Nn2c(nnc2-c2ccco2)SC1,5.55,"0.00517 µM [falling, full curve, poor fit]",
CCN(C#N)c1nc(NC(C)C)nc(NC(C)(C)C)n1,-12.9,"0.651 µM [falling, full curve, poor fit]","0.13 µM [falling, full curve, poor fit]"
Cc1ccc([C@@H]2[C@@H]3C(=O)N(C)C(=O)[C@@H]3[C@@H]3C(=O)Nc4ccccc4C(=O)N23)cc1,-8.09,"0.00461 µM [falling, full curve, poor fit]",
CCC(c1nnnn1Cc1ccc2c(c1)OCO2)N1CCN(c2ccc(F)cc2)CC1 (centres undefined),21.7,,"2.59 µM [rising, full curve, poor fit]"
CCN(CC)C(=O)c1cc([N+](=O)[O-])cc2c1-c1ccc([N+](=O)[O-])cc1C2=C(C#N)C#N,-13.1,,
O=C(NC1CC1)C1CCN(C2CCN(Cc3ccccc3C(F)(F)F)CC2)CC1,-8.25,,"0.0731 µM [rising, full curve, poor fit]"
Cc1ccc(S(=O)(=O)N2[C@@H](c3ccccc3F)C(C(=O)O)=CC[C@H]2c2ccc3c(c2)OCO3)cc1,35.5,,"6.51 µM [falling, single point]"
CSc1ncccc1C(=O)OCC(=O)NC1CC1,-32.7,"6.51 µM [falling, single point]","4.61 µM [falling, full curve, poor fit]"
O=C(NNC(=O)C1CCCCC1)c1ccc(Br)cc1,-32.4,,"20.6 µM [falling, single point]"
CN(C)c1cccc(C(=O)OCC(=O)N(C)c2ccccc2)c1,10.4,"29.1 µM [falling, single point]",
CC1=C(C(=O)N2CCCC(C(=O)c3cccc4ccccc34)C2)OCCO1 (centres undefined),-42.9,,"32.6 µM [falling, partial curve]"
COCCNc1cc(C)nc2c3c(C)cc(C)nc3nn12,5.42,,"0.651 µM [rising, full curve, poor fit]"
CCOc1cc(S(=O)(=O)N2CCCC2)ccc1Cl,-8.85,,"0.366 µM [falling, full curve, poor fit]"
O=C(NCC(=O)N(CC1CCCO1)C1(C(=O)NC2CCCCC2)CCCCC1)c1ccccc1 (centres undefined),27.1,"0.517 µM [rising, full curve]","0.146 µM [rising, full curve]"

SMILES,cell number change [%],AC50 [1],AC50 [2]
COc1ccc(C(=O)NCC(=O)NCC(=O)OCC(=O)C(C)(C)C)cc1,-0.303,"3.26 µM [rising, single point]",
Cc1ccc(S(=O)(=O)N2CCCC(C(=O)NCC3COCCO3)C2)cc1 (centres undefined),7.79,"4.11 µM [rising, full curve]",
Cc1cccc(CCNC(=O)C2CCCN(c3ncnc4c3nc3n4CCCCC3)C2)c1 (centres undefined),13.4,"6.51 µM [falling, single point]",
COc1ccc(N(C(=O)c2snc(C(N)=O)c2N)C(CC(C)C)C(=O)NCC2CCCO2)cc1 (centres undefined),-32.5,,"0.13 µM [falling, full curve, poor fit]"
CCCNc1nc2c(c(=O)[nH]c(=O)n2C)n1CCCc1ccccc1,-7.22,"16.4 µM [rising, single point]",
COc1ccc(NC(=O)Nc2cc(C)ccc2F)cc1,-2.03,"13 µM [rising, partial curve]",
Cc1ccc(C)c(NC(=S)N2C3CCCC2CC(NC(=O)C2CC2)C3)c1 (centres undefined),4.78,,
O=C(Nc1cc(Cl)ccc1Cl)Nn1cnnc1,29.2,,"3.66 µM [rising, single point]"
CCCNC(=O)Cc1c(C)n(C(=O)c2ccc(Cl)cc2)c2ccc(OC)cc12,-34.3,"2.59 µM [falling, partial curve, poor fit]","7.31 µM [falling, partial curve]"
COc1ccc(NS(=O)(=O)c2cc(NC(=O)CNC(=O)c3cccc(OC)c3)ccc2C)cc1,-12.7,,
COCCCNC(=O)CNC(=O)c1cn(-c2ccccc2OC)c(=O)c2ccccc12,-16.6,,
Cc1ccnc(NC(=O)CCC(=O)N(CC(=O)NC(C)(C)C)c2ccc3c(c2)OCO3)c1,-24.8,"6.51 µM [rising, single point]",
Cc1[nH]n(C(N)=S)c(=O)c1N=Nc1cccc(C(F)(F)F)c1,,"6.51 µM [falling, single point]","0.731 µM [falling, single point]"
CCC(=O)NCC(c1cccs1)N1CCOCC1 (centres undefined),-23.6,"0.00651 µM [falling, full curve, poor fit]",
CCCn1c(N2CCN(CC(=O)c3c[nH]c4ccccc34)CC2)nc2c1c(=O)[nH]c(=O)n2C,-5.13,"0.291 µM [rising, single point]",
O=[N+]([O-])c1cccc(CN2CCN(c3ncccn3)CC2)c1,23.2,"29.1 µM [rising, single point]",
N#Cc1c(N2C(=O)c3ccc(C(=O)O)cc3C2=O)sc2c1CCCC2,46.6,"29.1 µM [rising, single point]","25.9 µM [rising, single point]"
O=C(NCc1ccco1)C1CCN(Cc2ccc(F)cc2)CC1,2.02,"29.1 µM [falling, partial curve]",
CC(=O)c1cccc(NC2c3ccccc3C(=O)N2Cc2ccc3c(c2)OCO3)c1 (centres undefined),6.46,"3.26 µM [rising, partial curve]",

# Copied from the list.
# cell number change [%], `COCCNc1cc(C)nc2c3c(C)cc(C)nc3nn12` reads 5.42
# AC50 [1], `Cc1[nH]n(C(N)=S)c(=O)c1N=Nc1cccc(C(F)(F)F)c1` reads 6.51 µM [falling, single point]

# Next part

SMILES,cell number change [%],AC50 [1],AC50 [2]
Cn1c(SCC(N)=O)nnc1-c1ccc(S(=O)(=O)N2CCCC2)cc1,-6.41,,
O=C(COC(=O)c1ccc(F)cc1Cl)NC1CCS(=O)(=O)C1 (centres undefined),-6.09,"29.1 µM [rising, single point]",
Cc1onc(-c2ccccc2)c1C(=O)N(CC(C)C)c1c(N)n(CC(C)C)c(=O)[nH]c1=O,17.9,"0.0231 µM [rising, full curve, poor fit]",
O=Cc1sc(N2CCOCC2)nc1-c1ccccc1,-11.6,,
O=C1N/C(=N\N=C\c2cccs2)SC1Cc1cccc(Cl)c1 (centres undefined),-43.6,"18.4 µM [falling, partial curve, poor fit]","18.4 µM [falling, partial curve, poor fit]"
Cc1cc(C)c(C#N)c(SCC(=O)C2CC2)n1,,"0.103 µM [rising, full curve, poor fit]","0.092 µM [rising, full curve, poor fit]"
O=C(c1cn(-c2ccccc2)nc1-c1cccnc1)N1CCCCC1,0.2,"2.59 µM [rising, single point]",
CCOC(=O)C(=O)Nc1ccc2c(c1)OCO2,2.09,"3.66 µM [rising, single point]","0.103 µM [rising, full curve, poor fit]"
CCC(OC(=O)CN1C(=O)C(=O)c2ccccc21)C(=O)Nc1ccccc1OC (centres undefined),16.9,,
Cc1cccc(C2CC(c3ccc(Br)cc3)Nc3nc(N)nn32)c1 (centres undefined),0.922,"0.82 µM [rising, full curve, poor fit]",
COc1ccc(-c2csc(NNC3=NCCCCC3)n2)cc1,-57.6,"29.1 µM [falling, single point]","32.6 µM [falling, partial curve, poor fit]"
CC(=O)Nc1ccc(NC(=O)COC(=O)CCc2nc3ccccc3s2)cc1,-2.32,,
O=C(CSCc1ccccc1Cl)N1CCN(c2ccccn2)CC1,,,"0.103 µM [rising, full curve, poor fit]"
CCC1(c2ccccc2)NC(=O)N(CC(=O)Nc2cc(S(=O)(=O)N3CCOCC3)ccc2OC(C)C)C1=O (centres undefined),25,,"0.058 µM [rising, full curve, poor fit]"
Cc1ccc(OCC(O)Cn2c(=N)n(CCN3CCOCC3)c3ccccc32)cc1 (centres undefined),-7.37,"29.1 µM [rising, single point]",
Cc1ccc2c(c1)C1CC(C)(O2)N(c2cccc(C(=O)N3CCN(c4ccccn4)CC3)c2)C(=O)N1 (centres undefined),-24.1,"29.1 µM [falling, single point]",
O=C(NCC1CCCO1)c1ccc(S(=O)(=O)N2CCCCC2)cc1 (centres undefined),4.14,"3.26 µM [falling, full curve]",
O=C(COc1cc(Cl)c(Cl)cc1Cl)NCCN1CCOCC1,27,"0.651 µM [falling, single point]",
Cn1c2ccccc2c2cnn(CC(=O)Nc3cccc(F)c3)c(=O)c21,-32,"29.1 µM [falling, single point]","29.1 µM [falling, single point]"

# Ordered by number of heavy atoms (low to high): some entries from above
SMILES,cell number change [%],AC50 [1],AC50 [2]
O=C(COC(=O)c1ccc(F)cc1Cl)NC1CCS(=O)(=O)C1 (centres undefined),-6.09,"29.1 µM [rising, single point]",
Cc1ccc(C)c(NC(=S)N2C3CCCC2CC(NC(=O)C2CC2)C3)c1 (centres undefined),4.78,,
CC(=O)Nc1ccc(NC(=O)COC(=O)CCc2nc3ccccc3s2)cc1,-2.32,,
